By UniProt entry, the sequences of proteins in these tests, tags left out. Where a name states a change or a piece, a line headed by the entry shows the natural chain unless it says otherwise.
UniProt A0A3S5H4X0: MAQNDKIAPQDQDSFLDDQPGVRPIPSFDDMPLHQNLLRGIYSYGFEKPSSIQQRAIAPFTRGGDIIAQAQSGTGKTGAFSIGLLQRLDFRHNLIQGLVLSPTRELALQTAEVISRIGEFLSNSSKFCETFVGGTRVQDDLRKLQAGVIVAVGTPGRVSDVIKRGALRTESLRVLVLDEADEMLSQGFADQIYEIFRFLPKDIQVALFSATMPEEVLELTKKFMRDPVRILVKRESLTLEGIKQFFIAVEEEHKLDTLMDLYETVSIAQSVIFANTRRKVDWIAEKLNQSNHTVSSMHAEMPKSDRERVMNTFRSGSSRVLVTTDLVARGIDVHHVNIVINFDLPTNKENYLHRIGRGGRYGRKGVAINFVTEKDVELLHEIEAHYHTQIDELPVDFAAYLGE

According to PMC8939790:

Biological target: GST-tagged Leishmania donovani profilin (Leishmania donovani)
Test: pull-down; purified GST-LdPfn or GST alone on glutathione-Sepharose beads with L. donovani promastigote lysate; input, unbound, wash and eluate fractions blotted with anti-eIF4A1 antibodies; only the target purified

binding: binds
Substance: Eukaryotic initiation factor 4A-1 (from UniProt A0A3S5H4X0)

No constants are given. Whether binding was seen depends on the method and setting. In cells and extracts the contact can be indirect. A result given as binding can be weak or reduced; the word gives no strength.
